Test results published in patent CN113173994A.
These are yes or no findings as the source states them, for the method shown. Some results given as binding are weak or reduced against the parent protein; the word gives no strength.

T1: 重组AFP抗原(爱必信生物，货号Abt-P-208，GenbankID:174) (UniProt P02771)
T1 sequence (looked up): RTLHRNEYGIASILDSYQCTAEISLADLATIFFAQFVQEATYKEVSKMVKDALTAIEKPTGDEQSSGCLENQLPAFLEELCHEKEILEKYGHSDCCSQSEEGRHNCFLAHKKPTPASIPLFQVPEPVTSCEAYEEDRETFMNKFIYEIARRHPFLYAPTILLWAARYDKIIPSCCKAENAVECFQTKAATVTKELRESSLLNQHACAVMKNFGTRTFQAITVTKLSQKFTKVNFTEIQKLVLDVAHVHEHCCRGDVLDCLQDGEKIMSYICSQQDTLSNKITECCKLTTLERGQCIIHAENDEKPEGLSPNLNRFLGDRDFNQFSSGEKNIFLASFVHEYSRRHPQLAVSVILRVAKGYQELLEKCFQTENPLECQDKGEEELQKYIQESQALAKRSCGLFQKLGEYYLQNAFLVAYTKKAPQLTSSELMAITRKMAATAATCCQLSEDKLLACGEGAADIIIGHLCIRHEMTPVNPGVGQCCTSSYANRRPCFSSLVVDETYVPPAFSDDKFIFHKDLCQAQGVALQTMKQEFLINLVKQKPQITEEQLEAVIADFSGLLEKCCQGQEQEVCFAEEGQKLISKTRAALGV


What was measured:
[1] = biological target: T1, 重组AFP抗原(爱必信生物，货号Abt-P-208，GenbankID:174); experiment: Biacore sequential injection on immobilised AFP
[2] = biological target: T1, 重组AFP抗原(爱必信生物，货号Abt-P-208，GenbankID:174); experiment: ELISA additivity test on coated AFP

Row | binding [1] | binding [2] | Binder
1 | binds | binds | 抗AFP纳米抗体1A7 (VHH) VHH: QVQLQESGGGLVQAGGSLRLSCAASESIFSFAAMGWYRQAPGKQRELVARITGGDNINYADSVKGRFTISKDNAKNTVYLQMNSLKPEDTAVYYCNGEGYGSSWFDDGKNYWGKGTQVTVSS
2 | binds | binds | 纳米抗体2F5 (VHH) VHH: QVQLQESGGGVVQAGGSLRLTCAASESIFSFAAMGWYRQAPGKQRELVARITGGDNINYADSVKGRFTISKDNAKNTVYLQMNSLKPEDTAVYYCNGEGYGSSWFDDGKNYWGKGTQVTVSS
